PMC6389929
No constants are given. Whether binding was seen depends on the method and setting. In cells and extracts the contact can be indirect. A yes stands for co-enrichment or nearness to the bait. Other partners may have been found. For some of these results: Sequences can lack the tags named with a protein.

Amino acid sequences for entries named in this document (tags omitted).
UniProt Q93009: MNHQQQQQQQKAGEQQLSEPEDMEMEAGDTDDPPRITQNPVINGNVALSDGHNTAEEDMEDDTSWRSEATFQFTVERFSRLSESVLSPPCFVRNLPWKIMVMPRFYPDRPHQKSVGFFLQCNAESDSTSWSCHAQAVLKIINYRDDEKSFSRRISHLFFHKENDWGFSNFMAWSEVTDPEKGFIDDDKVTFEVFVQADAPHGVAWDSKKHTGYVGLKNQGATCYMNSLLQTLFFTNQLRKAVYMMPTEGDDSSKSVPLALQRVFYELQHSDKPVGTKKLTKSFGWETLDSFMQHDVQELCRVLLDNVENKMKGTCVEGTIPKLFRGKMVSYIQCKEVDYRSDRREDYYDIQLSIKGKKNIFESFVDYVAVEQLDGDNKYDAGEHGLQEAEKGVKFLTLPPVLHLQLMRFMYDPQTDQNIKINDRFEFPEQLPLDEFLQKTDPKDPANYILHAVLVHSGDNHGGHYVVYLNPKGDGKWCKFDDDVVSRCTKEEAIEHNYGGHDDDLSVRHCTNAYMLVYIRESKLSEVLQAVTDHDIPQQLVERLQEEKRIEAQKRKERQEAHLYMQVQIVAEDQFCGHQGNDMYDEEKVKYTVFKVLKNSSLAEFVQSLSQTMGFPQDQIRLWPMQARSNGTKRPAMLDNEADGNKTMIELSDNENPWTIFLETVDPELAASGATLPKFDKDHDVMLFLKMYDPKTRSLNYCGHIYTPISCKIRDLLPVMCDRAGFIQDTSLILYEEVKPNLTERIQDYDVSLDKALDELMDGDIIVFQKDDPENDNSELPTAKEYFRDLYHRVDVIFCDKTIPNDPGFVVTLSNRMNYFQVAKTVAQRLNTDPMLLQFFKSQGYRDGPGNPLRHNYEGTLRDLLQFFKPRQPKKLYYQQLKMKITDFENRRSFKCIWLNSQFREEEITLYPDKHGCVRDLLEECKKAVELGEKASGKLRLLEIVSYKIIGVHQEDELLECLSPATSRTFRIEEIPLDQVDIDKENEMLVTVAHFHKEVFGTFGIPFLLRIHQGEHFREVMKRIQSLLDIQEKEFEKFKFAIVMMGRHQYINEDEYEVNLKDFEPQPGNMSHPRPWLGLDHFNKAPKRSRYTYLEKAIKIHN
UniProt Q96Q89: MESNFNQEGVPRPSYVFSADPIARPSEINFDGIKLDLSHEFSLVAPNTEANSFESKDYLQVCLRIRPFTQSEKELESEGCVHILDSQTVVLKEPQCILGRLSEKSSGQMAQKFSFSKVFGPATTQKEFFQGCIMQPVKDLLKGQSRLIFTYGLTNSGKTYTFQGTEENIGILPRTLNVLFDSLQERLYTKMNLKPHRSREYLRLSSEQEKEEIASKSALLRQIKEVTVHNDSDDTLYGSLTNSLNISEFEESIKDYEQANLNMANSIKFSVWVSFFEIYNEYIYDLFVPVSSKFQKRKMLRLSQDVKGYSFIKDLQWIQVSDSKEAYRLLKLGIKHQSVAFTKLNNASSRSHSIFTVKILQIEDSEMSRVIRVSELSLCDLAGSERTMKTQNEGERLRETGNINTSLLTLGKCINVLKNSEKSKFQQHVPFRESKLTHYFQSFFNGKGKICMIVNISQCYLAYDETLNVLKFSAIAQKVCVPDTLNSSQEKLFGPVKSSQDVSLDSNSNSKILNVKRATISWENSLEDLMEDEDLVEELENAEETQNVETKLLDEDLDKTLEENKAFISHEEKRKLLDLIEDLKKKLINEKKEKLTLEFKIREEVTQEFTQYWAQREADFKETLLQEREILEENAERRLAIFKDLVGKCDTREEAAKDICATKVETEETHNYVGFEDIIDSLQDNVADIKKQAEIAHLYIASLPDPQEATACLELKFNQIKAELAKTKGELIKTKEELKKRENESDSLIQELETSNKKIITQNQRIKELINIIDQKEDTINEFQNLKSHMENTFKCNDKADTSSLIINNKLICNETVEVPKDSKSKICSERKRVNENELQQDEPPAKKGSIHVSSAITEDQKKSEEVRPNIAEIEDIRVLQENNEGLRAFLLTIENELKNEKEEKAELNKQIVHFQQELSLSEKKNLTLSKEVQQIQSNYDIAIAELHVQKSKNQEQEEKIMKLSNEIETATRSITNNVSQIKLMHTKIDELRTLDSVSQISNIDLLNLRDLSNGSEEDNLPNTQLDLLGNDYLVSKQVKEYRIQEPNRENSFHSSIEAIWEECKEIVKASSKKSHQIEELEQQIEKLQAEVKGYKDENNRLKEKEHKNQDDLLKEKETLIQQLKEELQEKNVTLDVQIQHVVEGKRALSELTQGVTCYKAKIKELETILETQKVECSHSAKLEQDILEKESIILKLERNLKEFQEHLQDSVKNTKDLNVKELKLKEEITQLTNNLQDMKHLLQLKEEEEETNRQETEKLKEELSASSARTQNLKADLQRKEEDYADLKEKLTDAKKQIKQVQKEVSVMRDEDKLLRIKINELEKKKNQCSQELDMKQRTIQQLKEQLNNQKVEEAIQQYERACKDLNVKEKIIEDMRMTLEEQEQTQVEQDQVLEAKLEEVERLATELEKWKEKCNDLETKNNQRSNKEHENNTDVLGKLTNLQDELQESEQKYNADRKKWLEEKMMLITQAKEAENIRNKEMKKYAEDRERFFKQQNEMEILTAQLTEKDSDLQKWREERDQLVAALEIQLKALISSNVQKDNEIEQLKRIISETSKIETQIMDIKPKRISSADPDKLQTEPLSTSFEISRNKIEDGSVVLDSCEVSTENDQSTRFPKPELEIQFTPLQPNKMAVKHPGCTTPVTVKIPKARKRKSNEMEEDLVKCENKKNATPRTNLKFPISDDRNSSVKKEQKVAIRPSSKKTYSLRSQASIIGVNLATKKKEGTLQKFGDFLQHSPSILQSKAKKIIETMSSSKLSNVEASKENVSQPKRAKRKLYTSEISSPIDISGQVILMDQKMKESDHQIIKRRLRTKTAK
UniProt P63208: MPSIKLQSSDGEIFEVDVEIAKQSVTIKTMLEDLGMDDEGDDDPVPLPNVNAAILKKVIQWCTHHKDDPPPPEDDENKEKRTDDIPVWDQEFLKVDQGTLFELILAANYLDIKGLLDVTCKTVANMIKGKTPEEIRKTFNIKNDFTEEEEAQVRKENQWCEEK

What was measured:
FLAGBirA*-tagged FBXO38 = molecular target: T1, FLAGBirA*-tagged FBXO38 (UniProt Q6PIJ6); experiment: proximity labelling; BioID: FLAGBirA*-FBXO38 induced with tetracycline in 293 T-REx cells with 50 µM biotin for 24 hrs; Streptavidin Sepharose beads; LC-MS/MS; FLAGBirA* alone as control; BFDR ≤ 0.01
T1 sequence: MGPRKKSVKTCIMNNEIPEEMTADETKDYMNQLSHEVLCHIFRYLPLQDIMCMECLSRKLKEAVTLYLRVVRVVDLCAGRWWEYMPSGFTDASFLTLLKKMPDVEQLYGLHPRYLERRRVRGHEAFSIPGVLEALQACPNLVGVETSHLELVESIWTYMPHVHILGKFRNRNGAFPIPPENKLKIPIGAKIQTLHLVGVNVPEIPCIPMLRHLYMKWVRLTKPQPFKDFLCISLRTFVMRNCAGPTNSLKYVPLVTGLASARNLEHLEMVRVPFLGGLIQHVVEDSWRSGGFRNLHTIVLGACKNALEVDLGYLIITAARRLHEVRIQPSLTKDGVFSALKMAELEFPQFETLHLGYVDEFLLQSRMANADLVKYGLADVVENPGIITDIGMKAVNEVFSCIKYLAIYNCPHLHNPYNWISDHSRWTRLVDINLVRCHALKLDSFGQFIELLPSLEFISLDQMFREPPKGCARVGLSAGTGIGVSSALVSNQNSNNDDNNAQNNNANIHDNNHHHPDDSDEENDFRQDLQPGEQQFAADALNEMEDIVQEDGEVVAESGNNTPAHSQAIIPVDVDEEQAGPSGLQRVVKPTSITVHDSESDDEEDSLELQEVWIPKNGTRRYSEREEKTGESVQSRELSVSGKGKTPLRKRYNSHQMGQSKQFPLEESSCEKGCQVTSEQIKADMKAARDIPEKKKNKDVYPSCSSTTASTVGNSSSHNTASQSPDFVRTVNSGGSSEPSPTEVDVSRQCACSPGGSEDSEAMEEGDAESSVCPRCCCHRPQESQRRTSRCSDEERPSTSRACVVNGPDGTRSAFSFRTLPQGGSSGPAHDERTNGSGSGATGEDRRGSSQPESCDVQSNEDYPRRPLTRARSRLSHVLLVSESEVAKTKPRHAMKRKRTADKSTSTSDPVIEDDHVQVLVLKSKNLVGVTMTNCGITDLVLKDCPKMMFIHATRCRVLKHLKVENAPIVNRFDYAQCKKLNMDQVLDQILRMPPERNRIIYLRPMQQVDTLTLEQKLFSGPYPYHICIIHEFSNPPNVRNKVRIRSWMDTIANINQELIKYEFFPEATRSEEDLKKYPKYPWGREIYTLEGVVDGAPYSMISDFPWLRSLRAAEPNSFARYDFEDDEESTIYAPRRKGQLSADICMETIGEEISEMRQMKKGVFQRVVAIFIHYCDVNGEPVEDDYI

[1] = molecular target: FLAG-tagged USP7 (USP7 with C-terminal sequential peptide affinity (SPA) tag) (UniProt Q93009); experiment: affinity purification with mass spectrometry; USP7 with C-terminal SPA tag delivered by adenovirus to AGS cells; high salt extraction, dialysed to 0.1 M potassium acetate; anti-FLAG M2 resin 4 hours at 4 °C; LC-MS/MS; FLAG-β-gal as negative control

Kinesin Family member 20B (KIF20B), endogenous (from UniProt Q96Q89 1-1820)
binding (FLAGBirA*-tagged FBXO38): binds

USP7 (endogenous) (from UniProt Q93009 1-1102) (enzyme)
binding (FLAGBirA*-tagged FBXO38): binds

SKP1 (endogenous) (from UniProt P63208 1-163)
binding (FLAGBirA*-tagged FBXO38): binds

B1: DHX40 (protein, UniProt Q8IX18 1-779)
chain: MSRFPAVAGRAPRRQEEGERSRDLQEERLSAVCIADREEKGCTSQEGGTTPTFPIQKQRKKIIQAVRDNSFLIVTGNTGSGKTTQLPKYLYEAGFSQHGMIGVTQPRKVAAISVAQRVAEEMKCTLGSKVGYQVRFDDCSSKETAIKYMTDGCLLKHILGDPNLTKFSVIILDEAHERTLTTDILFGLLKKLFQEKSPNRKEHLKVVVMSATMELAKLSAFFGNCPIFDIPGRLYPVREKFCNLIGPRDRENTAYIQAIVKVTMDIHLNEMAGDILVFLTGQFEIEKSCELLFQMAESVDYDYDVQDTTLDGLLILPCYGSMTTDQQRRIFLPPPPGIRKCVISTNISATSLTIDGIRYVVDGGFVKQLNHNPRLGLDILEVVPISKSEALQRSGRAGRTSSGKCFRIYSKDFWNQCMPDHVIPEIKRTSLTSVVLTLKCLAIHDVIRFPYLDPPNERLILEALKQLYQCDAIDRSGHVTRLGLSMVEFPLPPHLTCAVIKAASLDCEDLLLPIAAMLSVENVFIRPVDPEYQKEAEQRHRELAAKAGGFNDFATLAVIFEQCKSSGAPASWCQKHWIHWRCLFSAFRVEAQLRELIRKLKQQSDFPKETFEGPKHEVLRRCLCAGYFKNVARRSVGRTFCTMDGRGSPVHIHPSSALHEQETKLEWIIFHEVLVTTKVYARIVCPIRYEWVRDLLPKLHEFNAHDLSSVARREVREDARRRWTNKENVKQLKDGISKDVLKKMQRRNDDKSISDARARFLERKQQRTQDHSDTRKETG
binding [1]: binds
